Data from the supplement of paper PMC10849652.
This is one part of the list.

Amino acid sequences for entries named in this document (tags omitted). A change or cut given only in a name is not applied to a line headed by its entry.
UniProt P62312: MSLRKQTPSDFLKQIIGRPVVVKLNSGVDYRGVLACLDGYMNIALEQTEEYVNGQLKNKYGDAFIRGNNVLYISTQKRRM
UniProt P46734: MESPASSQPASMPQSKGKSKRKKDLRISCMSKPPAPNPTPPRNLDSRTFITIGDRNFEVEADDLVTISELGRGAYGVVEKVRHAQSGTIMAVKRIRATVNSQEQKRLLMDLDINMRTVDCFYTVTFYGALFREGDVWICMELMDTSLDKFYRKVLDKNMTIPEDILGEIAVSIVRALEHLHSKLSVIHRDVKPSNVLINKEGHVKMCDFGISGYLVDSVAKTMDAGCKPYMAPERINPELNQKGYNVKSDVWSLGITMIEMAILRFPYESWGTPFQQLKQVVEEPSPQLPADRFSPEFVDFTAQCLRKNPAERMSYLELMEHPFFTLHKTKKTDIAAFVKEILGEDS
UniProt Q14766: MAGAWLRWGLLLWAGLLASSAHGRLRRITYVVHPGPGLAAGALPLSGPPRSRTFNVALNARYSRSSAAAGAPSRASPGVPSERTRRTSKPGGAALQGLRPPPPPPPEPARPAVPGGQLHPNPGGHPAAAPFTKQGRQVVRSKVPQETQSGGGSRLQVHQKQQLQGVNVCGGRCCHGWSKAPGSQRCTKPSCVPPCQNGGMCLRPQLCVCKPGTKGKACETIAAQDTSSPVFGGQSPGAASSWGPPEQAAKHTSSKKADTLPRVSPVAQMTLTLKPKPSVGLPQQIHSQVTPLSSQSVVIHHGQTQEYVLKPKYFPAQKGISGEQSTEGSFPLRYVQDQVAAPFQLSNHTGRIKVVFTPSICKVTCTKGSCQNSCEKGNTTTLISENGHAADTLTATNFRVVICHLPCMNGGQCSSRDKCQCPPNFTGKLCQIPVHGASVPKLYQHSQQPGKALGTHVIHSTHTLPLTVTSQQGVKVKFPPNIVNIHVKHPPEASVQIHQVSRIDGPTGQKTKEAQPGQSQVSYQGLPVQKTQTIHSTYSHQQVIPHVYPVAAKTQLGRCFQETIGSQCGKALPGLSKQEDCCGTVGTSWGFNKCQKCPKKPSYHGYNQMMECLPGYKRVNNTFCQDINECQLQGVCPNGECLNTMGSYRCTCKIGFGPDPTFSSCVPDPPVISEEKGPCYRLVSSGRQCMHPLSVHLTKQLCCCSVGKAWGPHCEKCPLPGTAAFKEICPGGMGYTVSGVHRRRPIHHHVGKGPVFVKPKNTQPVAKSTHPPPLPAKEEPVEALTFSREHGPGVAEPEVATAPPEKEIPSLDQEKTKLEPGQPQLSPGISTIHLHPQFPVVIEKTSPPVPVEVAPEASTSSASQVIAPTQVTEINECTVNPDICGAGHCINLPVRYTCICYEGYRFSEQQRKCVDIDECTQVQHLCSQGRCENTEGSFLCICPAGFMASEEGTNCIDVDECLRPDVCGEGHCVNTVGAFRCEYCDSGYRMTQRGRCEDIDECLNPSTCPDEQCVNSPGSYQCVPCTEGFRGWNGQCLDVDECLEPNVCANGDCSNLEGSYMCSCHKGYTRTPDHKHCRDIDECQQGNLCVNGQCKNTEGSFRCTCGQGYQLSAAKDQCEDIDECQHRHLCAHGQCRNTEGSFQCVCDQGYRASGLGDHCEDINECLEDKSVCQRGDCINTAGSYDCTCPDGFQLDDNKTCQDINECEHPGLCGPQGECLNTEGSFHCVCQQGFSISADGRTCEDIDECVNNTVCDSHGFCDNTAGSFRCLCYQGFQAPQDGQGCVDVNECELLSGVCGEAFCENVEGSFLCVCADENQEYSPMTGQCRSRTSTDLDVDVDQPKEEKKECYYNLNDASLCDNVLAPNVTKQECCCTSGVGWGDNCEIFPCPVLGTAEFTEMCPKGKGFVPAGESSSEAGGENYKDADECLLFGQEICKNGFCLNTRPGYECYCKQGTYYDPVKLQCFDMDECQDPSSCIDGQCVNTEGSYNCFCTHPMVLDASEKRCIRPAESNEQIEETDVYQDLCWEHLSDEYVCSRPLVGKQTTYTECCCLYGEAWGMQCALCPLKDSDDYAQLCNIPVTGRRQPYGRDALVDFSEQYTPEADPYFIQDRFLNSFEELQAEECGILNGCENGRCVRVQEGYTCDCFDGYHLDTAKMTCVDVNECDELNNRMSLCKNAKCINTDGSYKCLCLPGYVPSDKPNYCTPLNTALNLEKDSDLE
UniProt Q32MZ4: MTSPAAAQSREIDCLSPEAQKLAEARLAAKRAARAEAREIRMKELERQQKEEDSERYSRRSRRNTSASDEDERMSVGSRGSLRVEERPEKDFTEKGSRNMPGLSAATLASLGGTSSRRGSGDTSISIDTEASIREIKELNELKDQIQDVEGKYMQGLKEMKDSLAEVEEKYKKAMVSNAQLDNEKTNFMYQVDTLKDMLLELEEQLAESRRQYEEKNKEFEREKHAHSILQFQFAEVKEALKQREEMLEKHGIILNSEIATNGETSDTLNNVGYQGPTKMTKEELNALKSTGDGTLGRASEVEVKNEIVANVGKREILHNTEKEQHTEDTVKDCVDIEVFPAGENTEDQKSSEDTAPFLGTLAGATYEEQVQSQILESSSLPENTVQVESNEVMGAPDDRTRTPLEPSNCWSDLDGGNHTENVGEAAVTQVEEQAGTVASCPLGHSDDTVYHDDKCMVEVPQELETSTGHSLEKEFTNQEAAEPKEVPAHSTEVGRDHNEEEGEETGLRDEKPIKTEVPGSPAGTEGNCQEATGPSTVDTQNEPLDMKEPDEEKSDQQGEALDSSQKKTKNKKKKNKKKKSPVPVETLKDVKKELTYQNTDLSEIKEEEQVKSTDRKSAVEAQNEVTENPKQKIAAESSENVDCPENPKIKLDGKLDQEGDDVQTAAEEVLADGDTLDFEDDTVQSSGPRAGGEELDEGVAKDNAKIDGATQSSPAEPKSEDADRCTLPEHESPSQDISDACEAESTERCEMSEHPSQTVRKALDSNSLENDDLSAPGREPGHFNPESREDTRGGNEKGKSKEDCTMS
UniProt O15479: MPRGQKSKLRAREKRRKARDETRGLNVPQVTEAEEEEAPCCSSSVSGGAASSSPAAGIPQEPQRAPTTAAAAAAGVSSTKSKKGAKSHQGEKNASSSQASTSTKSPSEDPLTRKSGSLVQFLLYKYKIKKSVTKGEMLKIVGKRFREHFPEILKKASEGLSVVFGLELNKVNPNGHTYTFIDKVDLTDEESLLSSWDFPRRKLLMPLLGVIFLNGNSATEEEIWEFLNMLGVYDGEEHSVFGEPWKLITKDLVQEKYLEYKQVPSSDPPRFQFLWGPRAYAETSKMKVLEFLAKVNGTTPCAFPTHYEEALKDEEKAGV
UniProt P46821: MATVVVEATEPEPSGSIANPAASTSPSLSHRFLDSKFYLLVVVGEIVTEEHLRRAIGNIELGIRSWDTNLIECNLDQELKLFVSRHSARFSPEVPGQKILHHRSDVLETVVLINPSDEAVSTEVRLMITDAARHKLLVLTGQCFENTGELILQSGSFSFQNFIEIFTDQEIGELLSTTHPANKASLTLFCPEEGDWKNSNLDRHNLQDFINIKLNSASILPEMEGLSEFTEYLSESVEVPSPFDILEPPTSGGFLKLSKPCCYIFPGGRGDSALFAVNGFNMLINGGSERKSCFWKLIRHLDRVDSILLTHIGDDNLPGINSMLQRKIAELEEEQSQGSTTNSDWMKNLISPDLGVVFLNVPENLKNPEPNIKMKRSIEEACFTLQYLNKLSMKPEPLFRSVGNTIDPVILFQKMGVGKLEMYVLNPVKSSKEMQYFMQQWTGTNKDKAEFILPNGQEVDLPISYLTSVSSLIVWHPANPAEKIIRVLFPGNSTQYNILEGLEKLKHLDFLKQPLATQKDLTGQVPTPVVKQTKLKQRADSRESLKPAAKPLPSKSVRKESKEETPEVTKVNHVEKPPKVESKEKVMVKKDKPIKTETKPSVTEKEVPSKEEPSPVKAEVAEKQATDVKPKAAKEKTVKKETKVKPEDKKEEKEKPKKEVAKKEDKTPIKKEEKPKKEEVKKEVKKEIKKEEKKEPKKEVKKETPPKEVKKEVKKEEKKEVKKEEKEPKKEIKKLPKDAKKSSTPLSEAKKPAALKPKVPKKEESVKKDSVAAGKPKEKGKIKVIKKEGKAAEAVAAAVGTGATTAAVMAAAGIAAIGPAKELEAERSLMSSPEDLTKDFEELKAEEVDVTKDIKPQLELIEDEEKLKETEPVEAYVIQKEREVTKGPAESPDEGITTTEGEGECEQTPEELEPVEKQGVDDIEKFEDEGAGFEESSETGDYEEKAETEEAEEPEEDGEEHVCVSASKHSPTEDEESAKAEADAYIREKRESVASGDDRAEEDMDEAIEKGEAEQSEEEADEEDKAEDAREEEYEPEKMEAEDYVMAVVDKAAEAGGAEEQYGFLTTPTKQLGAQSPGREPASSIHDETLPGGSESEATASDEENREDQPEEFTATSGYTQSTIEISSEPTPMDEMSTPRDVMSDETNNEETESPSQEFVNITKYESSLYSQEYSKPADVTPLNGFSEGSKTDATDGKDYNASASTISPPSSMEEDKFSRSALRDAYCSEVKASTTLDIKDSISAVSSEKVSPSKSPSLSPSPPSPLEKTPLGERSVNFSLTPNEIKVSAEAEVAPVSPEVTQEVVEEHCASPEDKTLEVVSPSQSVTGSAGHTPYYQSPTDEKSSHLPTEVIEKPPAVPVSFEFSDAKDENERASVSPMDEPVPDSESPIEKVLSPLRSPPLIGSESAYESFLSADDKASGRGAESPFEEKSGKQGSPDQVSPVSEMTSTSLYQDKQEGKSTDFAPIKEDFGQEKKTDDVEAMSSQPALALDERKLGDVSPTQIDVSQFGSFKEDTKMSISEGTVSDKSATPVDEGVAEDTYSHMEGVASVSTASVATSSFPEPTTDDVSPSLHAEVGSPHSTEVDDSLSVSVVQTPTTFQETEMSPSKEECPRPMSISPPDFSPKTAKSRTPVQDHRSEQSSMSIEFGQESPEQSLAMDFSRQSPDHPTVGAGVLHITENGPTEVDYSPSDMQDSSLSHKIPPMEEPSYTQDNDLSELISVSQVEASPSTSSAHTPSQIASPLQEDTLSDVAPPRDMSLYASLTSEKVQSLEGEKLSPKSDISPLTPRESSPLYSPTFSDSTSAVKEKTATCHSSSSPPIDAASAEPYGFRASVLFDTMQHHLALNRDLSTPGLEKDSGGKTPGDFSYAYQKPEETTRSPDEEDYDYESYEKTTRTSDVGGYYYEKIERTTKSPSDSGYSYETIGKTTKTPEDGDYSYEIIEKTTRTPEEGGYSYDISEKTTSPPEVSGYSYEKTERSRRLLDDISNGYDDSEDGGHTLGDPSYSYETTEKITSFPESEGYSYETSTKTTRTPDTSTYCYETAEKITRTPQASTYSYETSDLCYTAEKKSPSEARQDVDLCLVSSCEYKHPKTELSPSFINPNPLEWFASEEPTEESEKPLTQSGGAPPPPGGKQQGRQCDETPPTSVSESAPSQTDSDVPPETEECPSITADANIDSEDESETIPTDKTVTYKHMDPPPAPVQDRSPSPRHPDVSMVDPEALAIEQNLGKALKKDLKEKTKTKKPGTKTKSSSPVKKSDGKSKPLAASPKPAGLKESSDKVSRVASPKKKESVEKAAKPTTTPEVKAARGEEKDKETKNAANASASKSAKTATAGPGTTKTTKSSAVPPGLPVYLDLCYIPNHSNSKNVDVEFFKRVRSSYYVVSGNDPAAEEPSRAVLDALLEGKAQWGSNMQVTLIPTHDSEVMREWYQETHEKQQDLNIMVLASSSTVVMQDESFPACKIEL
UniProt Q9NX47: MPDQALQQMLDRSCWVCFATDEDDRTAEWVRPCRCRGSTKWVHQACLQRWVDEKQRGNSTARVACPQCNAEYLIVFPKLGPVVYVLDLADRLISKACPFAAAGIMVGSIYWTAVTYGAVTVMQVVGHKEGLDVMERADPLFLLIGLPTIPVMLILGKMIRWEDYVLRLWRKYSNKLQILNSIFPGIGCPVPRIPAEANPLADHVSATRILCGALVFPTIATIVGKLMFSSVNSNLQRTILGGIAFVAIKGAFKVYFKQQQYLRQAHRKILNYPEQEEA
UniProt Q5U5X0: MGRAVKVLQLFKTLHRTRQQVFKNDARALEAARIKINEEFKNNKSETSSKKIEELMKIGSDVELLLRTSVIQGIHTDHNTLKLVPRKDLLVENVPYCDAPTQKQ
UniProt Q8IW41: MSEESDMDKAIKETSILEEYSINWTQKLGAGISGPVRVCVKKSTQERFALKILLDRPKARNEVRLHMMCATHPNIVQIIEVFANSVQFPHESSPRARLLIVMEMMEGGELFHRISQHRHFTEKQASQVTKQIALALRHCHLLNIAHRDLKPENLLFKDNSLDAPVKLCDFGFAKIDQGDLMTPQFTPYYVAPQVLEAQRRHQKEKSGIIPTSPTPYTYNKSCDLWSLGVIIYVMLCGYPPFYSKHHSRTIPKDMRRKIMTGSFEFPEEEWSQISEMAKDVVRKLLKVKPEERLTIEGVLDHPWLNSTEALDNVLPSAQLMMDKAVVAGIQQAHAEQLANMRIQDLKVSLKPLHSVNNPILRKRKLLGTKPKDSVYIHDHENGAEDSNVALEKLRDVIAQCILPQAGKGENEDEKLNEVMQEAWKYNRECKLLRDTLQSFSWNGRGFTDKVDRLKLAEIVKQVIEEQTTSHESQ

Compound: C#Cc1cccc(Nc2ncnc3cc(OCCOC)c(OCCOC)cc23)c1 [erlotinib]
Experiment: log2 fold change, soluble protein after heating vs DMSO (PISA); higher = thermal stabilisation; K562 cells, 10 uM, 30 min; active = over 0.2 and 3.5 SD of the protein, either way, in both replicates (recomputed)
How it was run: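 Soluble protein was quantified by TMTpro 16plex LC-MS/MS after channel sums were equalised. It was obtained as the supernatant after 21,000xg for 90 min from pooled aliquots of K562 cells (2×10^6 cells/mL, 10 μM compound, 30 min) heated for 3 min across 48°C-58°C and extracted in PBS with 0.5% NP-40 at 4°C. Thermal stability values are relative to control samples and come from duplicates. They are given as log2 fold changes.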

Row | Target | log2 fold change
1 | MAP4 (UniProt E7EVA0) | inactive: 0
2 | MAPK12 (UniProt P53778) | inactive: -0.039
3 | M6PR (UniProt P20645) | inactive: -0.007
4 | LRSAM1 (UniProt Q6UWE0) | inactive: -0.011
5 | LSM6 (UniProt P62312) | inactive: -0.017
6 | MAN1A2 (UniProt O60476) | inactive: -0.027
7 | MAP2K3 isoform 3 (UniProt P46734) | inactive: -0.011
8 | MARCHF6 (UniProt O60337) | inactive: -0.029
9 | LTBP1 isoform 4 (UniProt Q14766) | inactive: 0.046
10 | LRRFIP1 (UniProt Q32MZ4) | inactive: 0.072
11 | MAGEA9 (UniProt P43362) | inactive: 0.05
12 | MAK16 (UniProt Q9BXY0) | inactive: 0.087
13 | LYZ (UniProt P61626) | inactive: 0.019
14 | MAN2C1 isoform 4 (UniProt Q9NTJ4) | inactive: -0.003
15 | MAP7D1 (UniProt Q3KQU3) | inactive: -0.06
16 | MAD2L1 (UniProt Q13257) | inactive: -0.01
17 | MARCKSL1 (UniProt P49006) | inactive: -0.001

Row | Target | log2 fold change
18 | LYPLA2 (UniProt O95372) | inactive: -0.008
19 | MADD isoform 2 (UniProt Q8WXG6) | inactive: 0.06
20 | MAPRE3 (UniProt Q9UPY8) | inactive: -0.039
21 | LSM14A isoform 2 (UniProt Q8ND56) | inactive: 0.051
22 | MAGEB2 (UniProt O15479) | inactive: -0.125
23 | MACROD1 (UniProt Q9BQ69) | inactive: 0.088
24 | LYPLAL1 (UniProt Q5VWZ2) | inactive: -0.014
25 | MAP1B (UniProt P46821) | inactive: -0.013
26 | LYL1 (UniProt P12980) | inactive: -0.043
27 | MACF1 (UniProt Q9UPN3) | inactive: -0.001
28 | MAN2A1 (UniProt Q16706) | inactive: -0.023
29 | MARCHF5 (UniProt Q9NX47) | inactive: 0.074
30 | LYRM4 (UniProt Q9HD34) | inactive: 0.008
31 | LYRM7 (UniProt Q5U5X0) | inactive: 0.008
32 | MAPKAPK5 (UniProt Q8IW41) | active: 0.249
33 | LUC7L (UniProt Q9NQ29) | inactive: -0.084

Shown as labelled records: entries from further up.
LYZ (UniProt P61626)
  log2 fold change: inactive: 0.019
MAN2C1 isoform 4 (UniProt Q9NTJ4)
  log2 fold change: inactive: -0.003
